Test system: mice
Assay: animal or person
Assay type: in vivo
Settings: Mus musculus, ip, read-out: Tail Pinch ED50

SMILES: CN1CC[C@]23c4c5ccc(O)c4O[C@H]2[C@@H](O)C=C[C@H]3[C@H]1C5.O=S(=O)(O)O [Morphine Sulfate, reference compound]
- ED50: 4.8 mg/kg
